For 9 molecules, odorant receptor activation results are on record in the odorant receptor screen of Mainland et al. (2015).

Test systems include OR4K13 clone 1266; OR4K14 clone 1276; OR4K17 clone 1319; OR4K17 clone 1420; OR4K2 clone 1258; OR4K3 clone 1259; OR4K5 clone 1261; OR4L1 R52S clone 1265; OR4M1 clone 1559; OR4M2 clone 1278; OR4N2 clone 1270; OR4N4 clone 1277; OR4N5 clone 1262; OR4P4 R231C clone 1398; OR4P4 clone 1139; OR4Q3 clone 1411; OR4S1 clone 1283; OR4S2 clone 1175; OR4X2 clone 1193.
Assay in all cases: odorant receptor activation (CRE luciferase / Renilla) (fold of no-odor wells); higher = more activation
Conditions in all cases: 100 µM

For experiment [1], the system named is OR4K15 N65S/E88V/S93A/A231E/L280P/I286M clone 1566.

Values joined by “and” are separate entries in the source; they are usually repeats but may differ in a detail not shown here. Equal values may be shown once. Some of the results follow. Each value is one well over the wells without odorant, computed here; the data are noisy.

Regarding `CCC1(O)C2(C)CCC(C2)C1(C)C` (centres undefined) [2-ethylfenchol], the odorant receptor activation with OR4K13 clone 1266 worked out at 0.731; in the experiment on OR4K14 clone 1276, 0.847; in experiment [1], 1.11; in the experiment on OR4K17 clone 1319, 1.15; with OR4K17 clone 1420 it was 0.623; with OR4K2 clone 1258, 1.28. The odorant receptor activation in the experiment on OR4K3 clone 1259 was determined as 0.794; in the experiment on OR4K5 clone 1261 it was 1.38; in the experiment on OR4L1 R52S clone 1265, 1.19; with OR4M1 clone 1559, 1.16; in the experiment with OR4M2 clone 1278 it was 1.17; in the experiment with OR4N2 clone 1270 it was 1.17. Further, the odorant receptor activation with OR4N4 clone 1277 stood at 1.09; with OR4N5 clone 1262 it was 0.656; with OR4P4 R231C clone 1398, 1.17; with OR4P4 clone 1139, 0.698; with OR4Q3 clone 1411 it was 0.581; in the experiment with OR4S1 clone 1283, 0.955. For the same molecule, the odorant receptor activation in the experiment on OR4S2 clone 1175 came to 0.849; in the experiment on OR4X2 clone 1193, 1.01.

Consider `C=C(C)C1CCC2=CC(=O)CC(C)C2(C)C1` (centres undefined) [amyl laurate], for which the odorant receptor activation came out at 1.63 in experiment [1] and 0.738 with OR4M1 clone 1559.

With `CCCCCCCCC=O` [nonyl aldehyde], the odorant receptor activation with OR4K13 clone 1266 is 1.32; in the experiment on OR4K14 clone 1276, 1.24; in experiment [1], 0.84; in the experiment with OR4K17 clone 1319 it was 0.798; with OR4K17 clone 1420, 0.982; in the experiment with OR4K2 clone 1258, 1.14. Moreover, the odorant receptor activation with OR4K3 clone 1259 was 1.01; in the experiment on OR4K5 clone 1261 it was 1.15; in the experiment on OR4L1 R52S clone 1265, 1.18; in the experiment on OR4M1 clone 1559, 0.862; in the experiment on OR4M2 clone 1278, 1.18; in the experiment on OR4N2 clone 1270 it was 0.84. Moreover, the odorant receptor activation with OR4N4 clone 1277 was 1.29; with OR4N5 clone 1262, 0.824; with OR4P4 R231C clone 1398 it was 0.796; in the experiment on OR4P4 clone 1139, 1.24; in the experiment on OR4Q3 clone 1411, 0.796; in the experiment with OR4S1 clone 1283 it was 0.938. Also, the odorant receptor activation was determined as 0.881 in the experiment on OR4S2 clone 1175 and 1.42 in the experiment on OR4X2 clone 1193.

For `C=CCc1ccc(O)c(OC)c1` [eugenol], the odorant receptor activation was 1.85 and 1.42 with OR4K13 clone 1266; 1.52 and 1.63 with OR4K14 clone 1276; 1.13 in experiment [1]; 1.48 and 1.45 in the experiment with OR4K17 clone 1319; 1.39 and 1.23 in the experiment on OR4K17 clone 1420; 1.35 and 1.83 in the experiment with OR4K2 clone 1258. The odorant receptor activation in the experiment with OR4K5 clone 1261 is 3.57 and 1.19; in the experiment with OR4L1 R52S clone 1265, 2.24 and 1.36; in the experiment on OR4M1 clone 1559, 1.44; in the experiment on OR4M2 clone 1278 it was 0.84 and 1.61; in the experiment on OR4N2 clone 1270, 2.38 and 1.51; with OR4N4 clone 1277 it was 0.907 and 1.13. For the same molecule, the odorant receptor activation was 4.58 and 1.96 in the experiment on OR4N5 clone 1262; 1.25 and 1.26 in the experiment with OR4P4 R231C clone 1398; 1.78 and 1.32 in the experiment with OR4P4 clone 1139; 2.73 and 2.09 in the experiment with OR4Q3 clone 1411; 0.87 and 1.36 in the experiment on OR4S1 clone 1283; 2.62 and 1.41 in the experiment with OR4S2 clone 1175. Besides, the odorant receptor activation in the experiment on OR4X2 clone 1193 was 2.31 and 1.13.

Turning to `CC(=O)OC(C)(C)C1CC=C(C)CC1` (centres undefined) [terpinyl acetate], the odorant receptor activation came out at 0.862 with OR4K13 clone 1266; 0.942 with OR4K14 clone 1276; 1.21 in experiment [1]; 0.83 in the experiment on OR4K17 clone 1319; 0.889 in the experiment on OR4K17 clone 1420; 0.784 in the experiment with OR4K2 clone 1258. Further, the odorant receptor activation in the experiment on OR4K3 clone 1259 came to 0.844; in the experiment on OR4K5 clone 1261, 0.674; with OR4L1 R52S clone 1265, 1.13; in the experiment with OR4M1 clone 1559, 0.923; with OR4M2 clone 1278 it was 1.17; with OR4N2 clone 1270, 1.04. The odorant receptor activation in the experiment with OR4N4 clone 1277 was 0.998; in the experiment with OR4N5 clone 1262 it was 0.863; in the experiment with OR4P4 R231C clone 1398, 0.767; in the experiment on OR4P4 clone 1139, 1.37; in the experiment with OR4Q3 clone 1411 it was 1.06; in the experiment on OR4S1 clone 1283 it was 0.89. The odorant receptor activation in the experiment on OR4S2 clone 1175 turned out to be 1.19; in the experiment with OR4X2 clone 1193 it was 1.03.

With `CC12CCC(CC1)C(C)(C)O2` [cineole], the odorant receptor activation was 0.881 in the experiment with OR4K13 clone 1266; 0.993 with OR4K14 clone 1276; 0.936 in experiment [1]; 1.03 with OR4K17 clone 1319; 0.197 in the experiment on OR4K17 clone 1420; 1.09 in the experiment with OR4K2 clone 1258. Moreover, the odorant receptor activation in the experiment on OR4K3 clone 1259 was found to be 1.1; in the experiment with OR4K5 clone 1261, 1.08; in the experiment with OR4L1 R52S clone 1265 it was 0.946; in the experiment on OR4M1 clone 1559, 1.1; in the experiment with OR4M2 clone 1278, 0.945; in the experiment with OR4N2 clone 1270 it was 1.28. Further, the odorant receptor activation with OR4N4 clone 1277 was found to be 1.08; with OR4N5 clone 1262 it was 1.05; with OR4P4 R231C clone 1398 it was 0.212; with OR4P4 clone 1139, 1; in the experiment with OR4Q3 clone 1411 it was 0.237; in the experiment with OR4S1 clone 1283, 0.83. The odorant receptor activation with OR4S2 clone 1175 turned out to be 0.867; in the experiment with OR4X2 clone 1193 it was 0.998.

Turning to `CC(=O)c1ccccc1` [acetophenone], the odorant receptor activation with OR4K13 clone 1266 turned out to be 1.03; in the experiment on OR4K14 clone 1276, 0.448; in the experiment with OR4K17 clone 1319, 2.76; with OR4K17 clone 1420, 0.921; in the experiment with OR4K2 clone 1258, 1.01; in the experiment on OR4K3 clone 1259, 2.33. Besides, the odorant receptor activation in the experiment with OR4K5 clone 1261 turned out to be 1.3; in the experiment on OR4L1 R52S clone 1265, 2.04; in the experiment with OR4M2 clone 1278, 0.882; in the experiment with OR4N2 clone 1270, 3.05; in the experiment with OR4N4 clone 1277, 0.646; with OR4N5 clone 1262, 1.31. Moreover, the odorant receptor activation with OR4P4 R231C clone 1398 came to 0.853; in the experiment on OR4P4 clone 1139 it was 1.15; in the experiment on OR4Q3 clone 1411, 1.45; in the experiment with OR4S1 clone 1283 it was 0.942; with OR4S2 clone 1175 it was 1.72; in the experiment with OR4X2 clone 1193, 2.06.

For `CC(C)(O)CCCC1=CCC(C=O)CC1` (centres undefined) [lyral], the odorant receptor activation in [1] came to 1.13; with OR4M1 clone 1559, 1.15.

In the case of `CC12C=CCC1C1CCC3=CC(=O)CCC3(C)C1CC2` (centres undefined) [androstadienone], the odorant receptor activation with OR4K13 clone 1266 was 1.15 and 0.961; in the experiment with OR4K14 clone 1276 it was 1.48 and 1.02; in the experiment on OR4K17 clone 1319, 0.768 and 0.791; in the experiment with OR4K17 clone 1420, 0.891; with OR4K2 clone 1258, 0.947 and 1.13; in the experiment with OR4K3 clone 1259, 1.39 and 1.13. The odorant receptor activation was 1.09 and 1.15 in the experiment on OR4K5 clone 1261; 0.943 and 1.05 with OR4L1 R52S clone 1265; 1.13 and 0.875 in the experiment with OR4M2 clone 1278; 0.952 and 1.39 in the experiment with OR4N2 clone 1270; 0.907 and 0.875 in the experiment on OR4N4 clone 1277; 1.21 and 0.851 in the experiment on OR4N5 clone 1262. The odorant receptor activation was 0.679 in the experiment on OR4P4 R231C clone 1398; 0.495 in the experiment with OR4P4 clone 1139; 0.727 in the experiment with OR4Q3 clone 1411; 0.84 and 1.43 with OR4S1 clone 1283; 0.736 in the experiment on OR4S2 clone 1175; 0.715 with OR4X2 clone 1193.
